These are yes or no findings as the source states them, for the method shown. In cells and extracts the contact can be indirect. Some results given as binding are weak or reduced against the parent protein; the word gives no strength.

The chains behind the UniProt entries cited, without tags or fusion partners.
UniProt Q4QRB4: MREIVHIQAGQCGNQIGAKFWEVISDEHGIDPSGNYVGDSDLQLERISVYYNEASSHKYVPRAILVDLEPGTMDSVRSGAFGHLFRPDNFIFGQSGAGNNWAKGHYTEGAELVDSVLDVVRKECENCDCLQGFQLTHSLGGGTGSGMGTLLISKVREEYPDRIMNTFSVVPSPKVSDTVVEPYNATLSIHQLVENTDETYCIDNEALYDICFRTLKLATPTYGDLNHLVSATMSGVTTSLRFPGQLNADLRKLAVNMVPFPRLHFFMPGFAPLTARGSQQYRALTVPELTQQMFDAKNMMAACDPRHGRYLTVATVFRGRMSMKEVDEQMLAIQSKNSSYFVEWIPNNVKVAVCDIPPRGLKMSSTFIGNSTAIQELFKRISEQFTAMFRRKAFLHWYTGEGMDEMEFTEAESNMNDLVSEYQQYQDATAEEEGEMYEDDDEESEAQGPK
UniProt Q63544: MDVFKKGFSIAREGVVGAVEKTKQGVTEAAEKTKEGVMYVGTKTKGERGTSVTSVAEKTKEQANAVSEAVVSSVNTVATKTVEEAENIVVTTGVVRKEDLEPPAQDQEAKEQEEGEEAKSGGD

From publication PMC5703968 come the findings set out here.

The assay addresses βIII-tubulin (endogenous, rat femoral nerve) (rat (endogenous in femoral nerve)) (UniProt Q4QRB4). Kind of assay: co-IP; biotinylated anti-βIII-tubulin antibody on streptavidin agarose; lysate of ligated rat femoral nerve; co-precipitates examined by Western blotting with anti-αSyn and anti-γSyn.

As for “γ-synuclein (endogenous, rat femoral nerve) (from UniProt Q63544 1-123)”, the binding entry was “binds”.
